Measurements published in PubChem BioAssay AID250 (DTP/NCI, 2004).
The list is a part of this screen's results and no random one: it gathers tests that were run many times, whatever their T/C, doses with no T/C, and many T/C values between a quarter and a half above the control. Further doses and runs are listed elsewhere. T/C: endpoint of the treated group in % of that of the vehicle group. For survival time, this PubChem deposit counts one and a half times the control or more as active, and values a quarter to a half above the control carry no call in these data; other NCI protocols may use other cut-offs. Schedules are NCI's codes, read here as Q, the interval in days (D) or hours (H), X, the number of doses. Some schedules carry Z or #; the key to these is not given. Some doses were run more than once; their values stand side by side, smallest first. Some T/C values are followed by the survivors on the day toxicity was checked, most often the fifth; where none is given, no animal had died by that day.

Tested on: BDF1 mice, L1210 leukemia sc
Experiment: NCI In Vivo Anticancer Drug Screen. Data for tumor model L1210 Leukemia (subcutaneous) in B6D2F1 (BDF1) mice
Conditions: T/C endpoint: median survival time, higher T/C = longer survival
Method in brief: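 Transplantable tumor-bearing mice; survival or tumor size recorded; result = T/C, treated vs vehicle control.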

[1] = dose: 300.0 mg/kg/injection, schedule: Q01DX Z (sc), vehicle: carboxymethylcellulose (CMC)
[2] = dose: 500.0 mg/kg/injection, schedule: Q01DX Z (sc), vehicle: carboxymethylcellulose (CMC)
[3] = dose: 300.0 mg/kg/injection, schedule: Q01DX Z (sc), vehicle: methylcellulose (MC)

## O=c1[nH]cc(F)c(=O)[nH]1
dose: 8.0 mg/kg/injection, schedule: Q01DX Z (sc), vehicle: saline
  T/C: 133 % of control
dose: 14.0 mg/kg/injection, schedule: Q01DX009 (sc), vehicle: saline
  T/C: 125 % of control
dose: 14.0 mg/kg/injection, schedule: Q01DX013 (sc), vehicle: saline
  T/C: 148 % of control
dose: 23.0 mg/kg/injection, schedule: Q01DX009 (ip), vehicle: saline
  T/C: 132 % of control
dose: 32.0 mg/kg/injection, schedule: Q01DX Z (sc), vehicle: saline
  T/C: 138 % of control
dose: 38.9 mg/kg/injection, schedule: Q01DX Z (sc), vehicle: saline
  T/C: 141 % of control [9 of 10 alive]
dose: 39.0 mg/kg/injection, schedule: Q01DX Z (sc), vehicle: saline
  T/C: 145 % of control
dose: 39.0 mg/kg/injection, schedule: Q04DX003 (ip), vehicle: saline
  T/C: 129 % of control
dose: 39.0 mg/kg/injection, schedule: Q04DX003 (sc), vehicle: saline
  T/C: 128 % of control
dose: 65.0 mg/kg/injection, schedule: Q01DX Z (sc), vehicle: saline, evaluated on day 34
  T/C: 136 % of control
dose: 65.0 mg/kg/injection, schedule: Q01DX Z (sc), vehicle: saline, run until all animals had died
  T/C: 135 and 140 % of control
dose: 65.0 mg/kg/injection, schedule: Q04DX003 (ip), vehicle: saline
  T/C: 142 % of control
dose: 108.0 mg/kg/injection, schedule: Q01DX Z (sc), vehicle: saline
  T/C: 130 and 135 % of control
dose: 180.0 mg/kg/injection, schedule: Q01DX Z (sc), vehicle: saline
  T/C: 130 % of control

## Nc1nc(=S)c2ncn(C3OC(COC(=O)c4ccc(Cl)cc4)C(OC(=O)c4ccc(Cl)cc4)C3OC(=O)c3ccc(Cl)cc3)c2[nH]1 (centres undefined)
dose: 180.0 mg/kg/injection, schedule: Q01DX Z (sc), vehicle: carboxymethylcellulose (CMC)
  T/C: 144 % of control
[1]
  T/C: 144 % of control
[2]
  T/C: 144 % of control

## O=c1[nH]c(=O)n([C@H]2CCCO2)cc1F
dose: 108.0 mg/kg/injection, schedule: Q01DX009 (ip), vehicle: water
  T/C: 147 % of control
dose: 108.0 mg/kg/injection, schedule: Q01DX009 (sc), vehicle: water
  T/C: 135 % of control
dose: 300.0 mg/kg/injection, schedule: Q04DX003 (sc), vehicle: water
  T/C: 143 % of control
dose: 500.0 mg/kg/injection, schedule: Q04DX003 (ip), vehicle: water
  T/C: 135 % of control

## NC(=O)N(CCCl)N=O
dose: 3.0 mg/kg/injection, schedule: Q07DX Z (sc), vehicle: saline
  T/C: 126 % of control
dose: 23.0 mg/kg/injection, schedule: Q01DX001 (sc), vehicle: saline
  T/C: 126 % of control
dose: 39.0 mg/kg/injection, schedule: Q01DX001 (sc), vehicle: saline
  T/C: 126 % of control

## CCOC(=O)C(N)Cc1ccc(N(CCCl)CCCl)cc1 (centres undefined)
dose: 14.0 mg/kg/injection, schedule: Q01DX Z (sc), vehicle: saline
  T/C: 130 and 138 % of control

## COC(=O)Nc1nc2ccc(C(=O)c3cccs3)cc2[nH]1
dose: 50.0 mg/kg/injection, schedule: Q04DX003 (iv), vehicle: other
  T/C: 127 % of control [6 of 7 alive]
dose: 70.0 mg/kg/injection, schedule: Q04DX003 (ip), vehicle: other
  T/C: 128 % of control
dose: 100.0 mg/kg/injection, schedule: Q04DX003 (ip), vehicle: other
  T/C: 130 % of control

## O=C(Nc1ccc(C(=O)Nc2ccc(C3=NCCN3)cc2)cc1)Nc1ccc(C2=NCCN2)cc1
[3]
  T/C: 145 % of control

## N[C@H](C(=O)O)[C@@H]1CC(Cl)=NO1
dose: 2.0 mg/kg/injection, schedule: Q01DX009 (sc), vehicle: saline
  T/C: 135 % of control
dose: 4.0 mg/kg/injection, schedule: Q01DX009 (sc), vehicle: saline
  T/C: 144 % of control
dose: 16.0 mg/kg/injection, schedule: Q01DX009 (sc), vehicle: saline
  T/C: 137 % of control
dose: 32.0 mg/kg/injection, schedule: Q01DX009 (sc), vehicle: saline
  T/C: 135 % of control
dose: 128.0 mg/kg/injection, schedule: Q01DX009 (sc), vehicle: saline
  T/C: 138 % of control

## OC(CBr)C(O)C(O)C(O)CBr (centres undefined)
dose: 300.0 mg/kg/injection, schedule: Q01DX009 (sc), vehicle: other
  T/C: 131 % of control
dose: 300.0 mg/kg/injection, schedule: Q01DX009 (sc), vehicle: steroid suspending solution
  T/C: 130 % of control
dose: 300.0 mg/kg/injection, schedule: Q01DX015 (sc), vehicle: other
  T/C: 133 % of control
dose: 300.0 mg/kg/injection, schedule: Q01DX015 (sc), vehicle: steroid suspending solution
  T/C: 131 % of control
dose: 500.0 mg/kg/injection, schedule: Q01DX009 (ip), vehicle: steroid suspending solution
  T/C: 133 % of control
dose: 500.0 mg/kg/injection, schedule: Q01DX009 (sc), vehicle: other
  T/C: 138 % of control
dose: 500.0 mg/kg/injection, schedule: Q01DX009 (sc), vehicle: steroid suspending solution
  T/C: 135 % of control
dose: 500.0 mg/kg/injection, schedule: Q01DX015 (sc), vehicle: other
  T/C: 125 % of control
dose: 500.0 mg/kg/injection, schedule: Q01DX015 (sc), vehicle: steroid suspending solution
  T/C: 126 % of control
dose: 800.0 mg/kg/injection, schedule: Q01DX015 (sc), vehicle: other
  T/C: 141 % of control
dose: 800.0 mg/kg/injection, schedule: Q01DX015 (sc), vehicle: steroid suspending solution
  T/C: 142 % of control
dose: 833.0 mg/kg/injection, schedule: Q01DX009 (sc), vehicle: other
  T/C: 130 % of control
dose: 833.0 mg/kg/injection, schedule: Q01DX009 (sc), vehicle: steroid suspending solution
  T/C: 130 % of control

## CC(=O)OCC1OC(n2ccc(N)nc2=O)C(OC(C)=O)C1OC(C)=O (centres undefined)
dose: 320.0 mg/kg/injection, schedule: Q01DX Z (sc), vehicle: carboxymethylcellulose (CMC)
  T/C: 135 % of control
dose: 640.0 mg/kg/injection, schedule: Q01DX Z (oral), vehicle: carboxymethylcellulose (CMC)
  T/C: 140 % of control

## Nc1ccc(OC(=O)Oc2ccc(N)cc2)cc1
[1]
  T/C: 127 % of control
[2]
  T/C: 127 % of control

## Cc1c2ccncc2c(C)c2c1[nH]c1ccccc12
dose: 20.0 mg/kg/injection, schedule: Q03HX008 (ip), vehicle: steroid suspending solution
  T/C: 127 % of control
dose: 40.0 mg/kg/injection, schedule: Q03HX008 (sc), vehicle: steroid suspending solution
  T/C: 133 % of control [7 of 8 alive]

## CC(=O)NC1=C(N2CC2)C(=O)C(NC(C)=O)=C(N2CC2)C1=O
dose: 0.65 mg/kg/injection, schedule: Q01DX Z (sc), vehicle: saline
  T/C: 131 % of control
dose: 3.0 mg/kg/injection, schedule: Q01DX Z (sc), vehicle: saline
  T/C: 136 % of control

## CCC(C)SC1=NC=NC2=NC=NC21 (centres undefined)
dose: 64.8 mg/kg/injection, schedule: Q01DX Z (sc), vehicle: methylcellulose (MC)
  T/C: 136 % of control
dose: 180.0 mg/kg/injection, schedule: Q01DX Z (sc), vehicle: methylcellulose (MC)
  T/C: 140 % of control
[3]
  T/C: 127 % of control

## O=C(Nc1ccc(C2=NCCN2)cc1)c1ccc(NC(=O)c2ccc(C3=NCCN3)cc2)cc1
dose: 65.0 mg/kg/injection, schedule: Q01DX Z (sc), vehicle: methylcellulose (MC)
  T/C: 145 % of control
dose: 108.0 mg/kg/injection, schedule: Q01DX Z (sc), vehicle: methylcellulose (MC)
  T/C: 130 % of control

## O=NN(CCCl)C(=O)NC1CCCCC1
dose: 4.0 mg/kg/injection, schedule: Q01DX009 (ip), vehicle: other
  T/C: 134 % of control
dose: 16.0 mg/kg/injection, schedule: Q01DX009 (ip), vehicle: other
  T/C: 148 % of control

## C[n+]1ccc(Nc2ccc(NC(=O)c3ccc(Nc4cc[n+](C)c5ccc(N)cc45)cc3)cc2)cc1
dose: 16.0 mg/kg/injection, schedule: Q01DX009 (ip), vehicle: Klucel (hydroxypropylcellulose) (HPC)
  T/C: 138 % of control [8 of 10 alive]

## O=NN(CCF)C(=O)NC12CC3CC(CC(C3)C1)C2
dose: 39.0 mg/kg/injection, schedule: Q01DX Z (sc), vehicle: carboxymethylcellulose (CMC)
  T/C: 138 % of control
